In patent US20240343792A1:
Where a chain is given by its changes, count along the chain named. These are yes or no findings as the source states them, for the method shown. Some results given as binding are weak or reduced against the parent protein; the word gives no strength.

Amino acid sequences for entries named in this document (tags omitted). Residues count along the entry.
UniProt P48061, residues 22-89: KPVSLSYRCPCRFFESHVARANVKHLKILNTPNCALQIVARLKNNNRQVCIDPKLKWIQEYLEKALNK

B1: VH1 + VL1 (antibody, V domains shown)
VH: QVQLVQSGAEVKKPGASVKVSCKASGYTFTSYYIHWVRQAPGQRLEWIGWIYPGNVNTKYNEKFKGRVTITADTSASTAYMELSSLRSEDTAVYYCARCWGYYYGSSYAMDYWGQGTLVTVSS
VL: EIVLTQSPDFQSVTPKEKVTITCRASQSIGTSIHWYQQKPDQSPKLLIKYASESISGVPSRFSGSGSGTDFTLTINSLEAEDAATYYCQQSNSWPTYTFGGGTKLEIK
B2: VH1 + VL2 (antibody, V domains shown)
VH: B1 VH
VL: B1 VL with K45R, T85D
B3: VH1 + VL3 (antibody, V domains shown)
VH: B1 VH
VL: B1 VL with I21F, K45R, V58I, T85D
B4: VH2 + VL1 (antibody, V domains shown)
VH: B1 VH with V68A, Y95F
VL: B1 VL
B5: VH2 + VL2 (antibody, V domains shown)
VH: B1 VH with V68A, Y95F
VL: B1 VL with K45R, T85D
B6: VH2 + VL3 (antibody, V domains shown)
VH: B1 VH with V68A, Y95F
VL: B1 VL with I21F, K45R, V58I, T85D
B7: VH3 + VL1 (antibody, V domains shown)
VH: B1 VH with R44G, V68A, Y95F
VL: B1 VL
B8: VH3 + VL2 (antibody, V domains shown)
VH: B1 VH with R44G, V68A, Y95F
VL: B1 VL with K45R, T85D
B9: VH3 + VL3 (antibody, V domains shown)
VH: B1 VH with R44G, V68A, Y95F
VL: B1 VL with I21F, K45R, V58I, T85D

molecular target: antigen (SDF-1a) (UniProt P48061); assay: ELISA, antibody coated (from 100 ug/ml, 1/3 serial dilution), SDF-1a at 2 ug/ml, His-[HRP] detection, OD450

binding, binds:
B1, B2, B3, B4, B5, B6, B7, B8, B9
